Experiment [1] has as its target T1, ATF2 (human (endogenous in K562 and in CD34+-derived erythroid cells)), P15336.
T1 chain: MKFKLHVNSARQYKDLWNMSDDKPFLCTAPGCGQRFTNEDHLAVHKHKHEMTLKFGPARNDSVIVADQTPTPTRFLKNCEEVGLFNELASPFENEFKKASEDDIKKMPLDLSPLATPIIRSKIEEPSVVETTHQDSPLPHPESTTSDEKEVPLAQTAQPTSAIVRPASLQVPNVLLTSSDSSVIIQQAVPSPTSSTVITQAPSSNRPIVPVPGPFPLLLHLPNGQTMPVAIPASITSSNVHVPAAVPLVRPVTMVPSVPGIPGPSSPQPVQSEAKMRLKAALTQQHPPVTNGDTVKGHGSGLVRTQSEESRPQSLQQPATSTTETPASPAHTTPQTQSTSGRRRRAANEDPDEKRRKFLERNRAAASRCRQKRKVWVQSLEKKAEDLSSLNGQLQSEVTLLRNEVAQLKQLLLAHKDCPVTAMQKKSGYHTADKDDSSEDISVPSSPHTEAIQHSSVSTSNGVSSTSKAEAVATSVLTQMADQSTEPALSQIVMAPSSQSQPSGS
In words: co-IP; 500 µg K562 nuclear extract, 2 µg ATF2 or Brg1 antibody (IgG control), protein A/G-agarose overnight, western blot. To be noted: remark: other sources report otherwise. Background: In western blotting, separated proteins are transferred to a membrane and probed.

Sequences of proteins named here, by UniProt entry; tags and fusion partners are left off.
UniProt P51532: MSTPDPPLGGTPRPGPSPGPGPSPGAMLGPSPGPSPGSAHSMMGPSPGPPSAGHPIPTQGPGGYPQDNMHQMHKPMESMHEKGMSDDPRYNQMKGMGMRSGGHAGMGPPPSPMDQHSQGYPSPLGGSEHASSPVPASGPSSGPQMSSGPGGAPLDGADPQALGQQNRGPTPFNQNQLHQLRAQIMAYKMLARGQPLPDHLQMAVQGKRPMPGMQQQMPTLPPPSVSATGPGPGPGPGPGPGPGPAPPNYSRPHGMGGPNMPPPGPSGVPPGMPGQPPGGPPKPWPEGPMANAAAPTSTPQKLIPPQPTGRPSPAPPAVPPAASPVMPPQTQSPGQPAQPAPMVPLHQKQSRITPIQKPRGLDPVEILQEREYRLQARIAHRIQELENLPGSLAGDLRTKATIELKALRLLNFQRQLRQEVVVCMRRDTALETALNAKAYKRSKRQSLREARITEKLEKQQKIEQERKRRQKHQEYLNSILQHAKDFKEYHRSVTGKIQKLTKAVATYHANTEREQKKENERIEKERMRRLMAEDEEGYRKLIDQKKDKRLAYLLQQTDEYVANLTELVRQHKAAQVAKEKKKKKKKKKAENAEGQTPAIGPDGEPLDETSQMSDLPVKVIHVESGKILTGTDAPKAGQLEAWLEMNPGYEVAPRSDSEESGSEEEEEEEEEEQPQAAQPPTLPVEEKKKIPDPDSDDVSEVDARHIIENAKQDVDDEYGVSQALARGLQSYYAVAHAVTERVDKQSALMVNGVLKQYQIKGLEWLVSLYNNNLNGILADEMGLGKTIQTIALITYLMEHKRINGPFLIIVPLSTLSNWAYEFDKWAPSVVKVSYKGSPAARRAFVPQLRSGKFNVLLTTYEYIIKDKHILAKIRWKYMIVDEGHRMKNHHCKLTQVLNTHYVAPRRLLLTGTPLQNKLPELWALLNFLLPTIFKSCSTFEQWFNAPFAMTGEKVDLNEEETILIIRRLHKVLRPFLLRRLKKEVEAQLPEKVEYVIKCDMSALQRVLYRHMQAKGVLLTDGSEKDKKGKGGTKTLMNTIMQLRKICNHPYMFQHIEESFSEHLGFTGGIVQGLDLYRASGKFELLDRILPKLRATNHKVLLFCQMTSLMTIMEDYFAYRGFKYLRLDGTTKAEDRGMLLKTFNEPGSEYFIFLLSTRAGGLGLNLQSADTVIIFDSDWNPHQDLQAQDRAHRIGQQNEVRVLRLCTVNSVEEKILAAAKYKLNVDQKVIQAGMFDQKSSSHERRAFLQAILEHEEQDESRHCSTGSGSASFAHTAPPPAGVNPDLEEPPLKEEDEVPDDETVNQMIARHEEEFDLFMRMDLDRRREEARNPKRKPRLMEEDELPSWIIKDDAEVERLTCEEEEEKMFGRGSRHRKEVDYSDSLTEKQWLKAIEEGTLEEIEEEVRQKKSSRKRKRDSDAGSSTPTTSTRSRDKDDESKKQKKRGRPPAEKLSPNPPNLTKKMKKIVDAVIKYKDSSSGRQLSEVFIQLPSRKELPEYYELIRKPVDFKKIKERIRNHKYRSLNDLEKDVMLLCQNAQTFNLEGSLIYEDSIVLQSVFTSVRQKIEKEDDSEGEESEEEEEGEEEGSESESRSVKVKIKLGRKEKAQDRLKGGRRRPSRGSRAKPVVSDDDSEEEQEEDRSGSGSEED

For experiment [2], the target named is CREB1 (human (endogenous in K562 and in CD34+-derived erythroid cells)), P16220. As to the kind of experiment: co-IP; lysates (50 µg) of CD34+-derived erythroid cells at day 3, 7, 14 and 21 of erythropoietin-induced differentiation, IP with anti-CREB1 antibody (IgG control), western blot. The settings on record: remark: other sources report otherwise.
Experiment [3] deals with T2, His-FLAG-tagged ATF2 (human (cDNA from K562 cells)), P15336.
T2 chain: T1 chain
In words: co-sedimentation; 10-30% sucrose gradient in HEMG buffer, 4°C; 0.6 M NaCl heparin sepharose fractions dialysed against HEMG; fractions 10-17 by western blot; co-migration from 2 mDa peaking at 700 kDa. The settings on record: remark: other sources report otherwise.

Experiment [4] addresses Brg1 (human (endogenous in K562 and in CD34+-derived erythroid cells)) (UniProt P51532). As to the kind of experiment: co-IP; 500 µg K562 nuclear extract, 2 µg ATF2 or Brg1 antibody (IgG control), protein A/G-agarose overnight, western blot.

No constants are given. Whether binding was seen depends on the method and setting. Binding seen in cells or lysates may run through a third protein. Some results given as binding are weak or reduced against the parent protein; the word gives no strength. For some of these results: Where a sequence is shown, tags or fusion partners need not be part of it.

B1: cJun, P05412 1-331 (protein)
chain: MTAKMETTFYDDALNASFLPSESGPYGYSNPKILKQSMTLNLADPVGSLKPHLRAKNSDLLTSPDVGLLKLASPELERLIIQSSNGHITTTPTPTQFLCPKNVTDEQEGFAEGFVRALAELHSQNTLPSVTSAAQPVNGAGMVAPAVASVAGGSGSGGFSASLHSEPPVYANLSNFNPGALSSGGGAPSYGAAGLAFPAQPQQQQQPPHHLPQQMPVQHPRLQALKEEPQTVPEMPGETPPLSPIDMESQERIKAERKRMRNRIAASKCRKRKLERIARLEEKVKTLKAQNSELASTANMLREQVAQLKQKVMNHVNSGCQLMLTQQLQTF
As for B1, the binding result in experiment [1], in experiment [2] and in experiment [3] was “binds” throughout.

B2: ATF2 (protein, UniProt P15336 1-505)
chain: T1 chain
As to B2, the binding result in experiment [4] is “binds”.
